These are yes or no findings as the source states them, for the method shown. Binding seen in cells or lysates may run through a third protein. Some results given as binding are weak or reduced against the parent protein; the word gives no strength.
T1: endogenous HOGA1 (human (endogenous in BxPC-3)) (UniProt Q86XE5)
T1 sequence: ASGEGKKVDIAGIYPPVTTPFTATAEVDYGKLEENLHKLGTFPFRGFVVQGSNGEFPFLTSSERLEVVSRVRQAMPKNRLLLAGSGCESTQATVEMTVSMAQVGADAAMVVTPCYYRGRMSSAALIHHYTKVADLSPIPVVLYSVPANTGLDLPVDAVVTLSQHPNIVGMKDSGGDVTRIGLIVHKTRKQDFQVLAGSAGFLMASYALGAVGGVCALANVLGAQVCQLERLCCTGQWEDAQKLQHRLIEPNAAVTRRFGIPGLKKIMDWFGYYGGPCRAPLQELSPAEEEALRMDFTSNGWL

Protein sequences, listed by entry. Tags and fused reporters are not part of them.
UniProt Q71RC2: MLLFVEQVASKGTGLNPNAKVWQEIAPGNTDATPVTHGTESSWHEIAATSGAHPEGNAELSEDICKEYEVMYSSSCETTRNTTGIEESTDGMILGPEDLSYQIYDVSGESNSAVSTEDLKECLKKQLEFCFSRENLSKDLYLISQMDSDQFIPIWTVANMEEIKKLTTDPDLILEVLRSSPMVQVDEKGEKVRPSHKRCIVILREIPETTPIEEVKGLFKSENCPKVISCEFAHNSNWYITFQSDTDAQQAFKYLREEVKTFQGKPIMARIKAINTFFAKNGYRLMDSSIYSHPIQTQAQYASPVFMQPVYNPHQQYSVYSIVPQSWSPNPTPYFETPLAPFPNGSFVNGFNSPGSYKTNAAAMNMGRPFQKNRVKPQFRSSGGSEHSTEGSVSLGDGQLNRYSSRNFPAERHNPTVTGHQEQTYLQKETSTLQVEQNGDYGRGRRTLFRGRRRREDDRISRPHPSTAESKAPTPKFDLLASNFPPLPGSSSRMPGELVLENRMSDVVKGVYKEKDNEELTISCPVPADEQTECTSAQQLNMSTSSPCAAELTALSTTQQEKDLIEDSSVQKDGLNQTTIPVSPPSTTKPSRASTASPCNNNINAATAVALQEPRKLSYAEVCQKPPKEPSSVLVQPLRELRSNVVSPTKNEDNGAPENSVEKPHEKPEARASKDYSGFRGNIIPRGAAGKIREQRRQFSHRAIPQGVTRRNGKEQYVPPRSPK
UniProt Q92615: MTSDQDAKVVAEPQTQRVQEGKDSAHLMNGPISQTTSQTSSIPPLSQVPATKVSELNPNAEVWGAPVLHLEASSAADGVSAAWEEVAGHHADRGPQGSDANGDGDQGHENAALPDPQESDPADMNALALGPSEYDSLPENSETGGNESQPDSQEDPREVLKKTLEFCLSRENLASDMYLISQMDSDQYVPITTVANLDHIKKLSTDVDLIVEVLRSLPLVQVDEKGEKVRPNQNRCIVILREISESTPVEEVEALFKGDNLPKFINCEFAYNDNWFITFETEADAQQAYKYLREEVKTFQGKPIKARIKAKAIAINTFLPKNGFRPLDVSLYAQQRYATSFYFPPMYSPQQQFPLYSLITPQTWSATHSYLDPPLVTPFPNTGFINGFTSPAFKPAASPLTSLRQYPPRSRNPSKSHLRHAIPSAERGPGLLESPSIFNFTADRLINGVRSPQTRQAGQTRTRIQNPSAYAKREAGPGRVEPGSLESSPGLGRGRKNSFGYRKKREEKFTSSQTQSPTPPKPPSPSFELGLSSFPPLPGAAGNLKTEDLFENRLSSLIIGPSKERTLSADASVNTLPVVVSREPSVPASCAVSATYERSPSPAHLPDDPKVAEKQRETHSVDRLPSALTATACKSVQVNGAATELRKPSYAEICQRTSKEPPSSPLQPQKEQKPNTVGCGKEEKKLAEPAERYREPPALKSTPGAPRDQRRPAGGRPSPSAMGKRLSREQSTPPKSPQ

T2: exogenous HOGA1 (human) (UniProt Q86XE5)
T2 sequence: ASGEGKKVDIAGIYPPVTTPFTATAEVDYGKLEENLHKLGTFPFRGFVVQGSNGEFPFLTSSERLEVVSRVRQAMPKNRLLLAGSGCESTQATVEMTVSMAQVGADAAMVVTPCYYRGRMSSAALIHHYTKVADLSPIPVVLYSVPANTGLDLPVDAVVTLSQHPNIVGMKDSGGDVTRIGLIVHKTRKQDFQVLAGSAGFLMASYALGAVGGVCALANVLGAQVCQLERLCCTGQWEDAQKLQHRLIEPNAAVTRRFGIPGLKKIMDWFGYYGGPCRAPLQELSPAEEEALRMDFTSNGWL

B1: endogenous LARP7 (protein, UniProt Q4G0J3 1-582)
chain: METESGNQEKVMEEESTEKKKEVEKKKRSRVKQVLADIAKQVDFWFGDANLHKDRFLREQIEKSRDGYVDISLLVSFNKMKKLTTDGKLIARALRSSAVVELDLEGTRIRRKKPLGERPKDEDERTVYVELLPKNVNHSWIERVFGKCGNVVYISIPHYKSTGDPKGFAFVEFETKEQAAKAIEFLNNPPEEAPRKPGIFPKTVKNKPIPALRVVEEKKKKKKKKGRMKKEDNIQAKEENMDTSNTSISKMKRSRPTSEGSDIESTEPQKQCSKKKKKRDRVEASSLPEVRTGKRKRSSSEDAESLAPRSKVKKIIQKDIIKEASEASKENRDIEISTEEEKDTGDLKDSSLLKTKRKHKKKHKERHKMGEEVIPLRVLSKSEWMDLKKEYLALQKASMASLKKTISQIKSESEMETDSGVPQNTGMKNEKTANREECRTQEKVNATGPQFVSGVIVKIISTEPLPGRKQVRDTLAAISEVLYVDLLEGDTECHARFKTPEDAQAVINAYTEINKKHCWKLEILSGDHEQRYWQKILVDRQAKLNQPREKKRGTEKLITKAEKIRLAKTQQASKHIRFSEYD

Assays:
[1] = target: T1, endogenous HOGA1 (human (endogenous in BxPC-3)); experiment: co-IP; endogenous HOGA1 and endogenous LARPs in BxPC-3 cells; precipitating antibody not stated
exogenous HOGA1 (human) = target: T2, exogenous HOGA1 (human); experiment: co-IP; exogenous tagged HOGA1 and LARPs in PANC-1 cells; lysis in 0.5% NP-40 buffer (50 mM Tris-HCl pH 7.5, 150 mM NaCl, 0.3% NONIDET P-40); Flag beads 3 h at 4 C; SDS-PAGE and western blot

| Molecule | binding [1] | binding (exogenous HOGA1 (human)) |
| --- | --- | --- |
| endogenous LARP4 (from UniProt Q71RC2 1-724) | binds | – |
| endogenous LARP4B (from UniProt Q92615 1-738) | binds | – |
| exogenous LARP4 (from UniProt Q71RC2 1-724) | – | binds |
| exogenous LARP4B (from UniProt Q92615 1-738) | – | binds |
| B1 | binds | – |

— publication PMC9701038
